Changes are numbered by the printed parent chain. These are yes or no findings as the source states them, for the method shown. Some results given as binding are weak or reduced against the parent protein; the word gives no strength.

By UniProt entry, the sequences of proteins in these tests, tags left out. Residues count along the entry.
UniProt P35225, residues 35-146: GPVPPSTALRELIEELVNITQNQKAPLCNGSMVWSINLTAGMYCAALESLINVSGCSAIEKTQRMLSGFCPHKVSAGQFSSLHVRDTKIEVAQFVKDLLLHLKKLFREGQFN

This assay has as its target IL-13 (antigen captured on the plate in the Fab ELISAs of Examples 9 and 10) (UniProt P35225). The experiment in a line: functional ELISA of Fabs. On the technique in general: In an ELISA, binding on a coated surface is turned into a signal by an enzyme label.

B1: humanized Fab RL-36 (Fab, V domains shown)
VH: QVTLRESGPALVKPTQTLTLTCTGSGFSLSAYSVNWIRQPPGKALEWLAMIWGDGKIVYNSALKSRLTISKDTSKNQVVLTMTNMDPVDTATYYCAVDGYYPYAMDNWGQGSLVTVSS
VL: DIVMTQSPDSLSVSLGERATINCRASKSVDSYGNSFMHWYQQKPGQPPKLLIYLASNLESGVPDRFSGSGSGTDFTLTISSLQAEDVAVYYCQQNNEDPRTFGGGTKVEIK
On to B1, for which the binding entry was “binds”.

B2: humanized Fab RL-19 (Fab, V domains shown)
VH: B1 VH with G24S, V97L
VL: B1 VL
Regarding B2, the binding result was “binds”.

Source of the values: US20120156203A1.
